## Percent effect of library compounds

Mtb cholesterol medium: 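Whole-cell growth test on Mycobacterium tuberculosis, read after 4 days in a medium based on cholesterol and the lipid DPPC; the read-out is not stated. Tested at 50 µM. Direction is inferred from retests: higher values go with more growth inhibition. About 69,000 compounds were tested under these conditions; 0.54% (about 370) showed 50% or more at least once.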
Mtb glucose medium: 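Whole-cell growth test on Mycobacterium tuberculosis, read after 3 days in glucose-containing 7H9 medium; the read-out is not stated. Compounds at 50 µM. Direction is inferred from retests: higher values go with more growth inhibition. Size under these conditions: about 69,000 compounds, about 760 of them at 50% or above in at least one test.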

The filed quantity is “Percent Effect” (%). The record does not define 0% and 100%; most values in the screen are far below 50% and negative numbers occur (in some assays of this library far below -100). Compounds were drawn at random from those tested, without regard to their results. Two or more numbers in one place are separate tests of the same structure; such repeats can differ widely.

{"smiles": "CC(C)c1noc(CCNC(=O)N2CCSC(C(C)C)C2)n1", "stereo": "stereo unspecified", "Mtb cholesterol medium": 0.1142, "Mtb glucose medium": 10.6}
{"smiles": "CCc1noc(CN(C)CCC(=O)Nc2ccccc2C#N)n1", "Mtb cholesterol medium": 2.39, "Mtb glucose medium": "-3.31 & 3.34"}
{"smiles": "CCN(CC)Cc1ccc(C(=O)N2CCCCC2Cn2cccn2)o1", "stereo": "stereo unspecified", "Mtb cholesterol medium": -4.184, "Mtb glucose medium": 14.88}
{"smiles": "Cl.O=C(c1ccnc(C2CCNCC2)c1)N1CCCOCC1", "Mtb cholesterol medium": "-7.944 & -3.771", "Mtb glucose medium": -17.67}
{"smiles": "CCN1CCCN(c2ncccc2C(=O)N2CCCCC2)CC1", "Mtb cholesterol medium": "-3.959 & 0.4021", "Mtb glucose medium": 0.4923}
{"smiles": "Cc1ccc(S(=O)(=O)NC[C@H]2OC[C@@H](NCc3ccccn3)[C@@H]2O)cc1", "Mtb cholesterol medium": -4.178, "Mtb glucose medium": "3.403 & 1.988"}
{"smiles": "CC(C)(C)n1ncc(NCC(O)c2ccccc2C(F)(F)F)c(Cl)c1=O", "stereo": "stereo unspecified", "Mtb cholesterol medium": "-2.372 & -14.77", "Mtb glucose medium": 18.53}
{"smiles": "CC(C1CC1)N(CC(=O)NCC(F)(F)F)C1CC1", "stereo": "stereo unspecified", "Mtb cholesterol medium": 4.532, "Mtb glucose medium": "-4.585 & -4.007"}
{"smiles": "Cc1nn(C)c(C)c1C(C)NCc1ccc(OC(C)C)cc1", "stereo": "stereo unspecified", "Mtb cholesterol medium": "14.46 & 2.298", "Mtb glucose medium": 7.488}
{"smiles": "COc1cc(CN(C)C(=O)NCc2cccc3c2OCO3)ccc1SC", "Mtb cholesterol medium": -9.106, "Mtb glucose medium": 10.18}
{"smiles": "Cc1nc(CN(C)C2CCN(Cc3sc(C)nc3C)C2)no1", "stereo": "stereo unspecified", "Mtb cholesterol medium": 1.506, "Mtb glucose medium": 13.8}
{"smiles": "Cc1cccc(NC(=O)C2CCc3ccccc3N2)c1.Cl", "stereo": "stereo unspecified", "Mtb cholesterol medium": 20.62, "Mtb glucose medium": 25.81}
{"smiles": "N#Cc1nc(COc2ccc3c(c2)OCO3)oc1NC1CCCCC1", "Mtb cholesterol medium": 15.58, "Mtb glucose medium": 17.97}
{"smiles": "CN(C)C(=O)CCS(=O)(=O)Cc1ccn(-c2cccc(F)c2)n1", "Mtb cholesterol medium": 8.381, "Mtb glucose medium": "-17.35 & -5.082"}
{"smiles": "Cc1ccc(F)cc1NS(=O)(=O)c1cc2c(c(C(=O)O)c1)OCCO2", "Mtb cholesterol medium": 17.59, "Mtb glucose medium": 1.718}
{"smiles": "CO[C@H]1CCN(Cc2ccoc2)C[C@@H]1Cc1ccccc1.O=C(O)C(F)(F)F", "Mtb cholesterol medium": -15.1, "Mtb glucose medium": -31.35}
{"smiles": "COCC1COCCC12CCN(S(=O)(=O)c1ccccc1)CC2", "stereo": "stereo unspecified", "Mtb cholesterol medium": -22.5, "Mtb glucose medium": -12.96}
{"smiles": "O=C(O)C(F)(F)F.O=C1COC2(CCN(Cc3ccoc3)CC2)CN1c1ccsc1", "Mtb cholesterol medium": -12.77, "Mtb glucose medium": 0.3878}
{"smiles": "O=C(O)c1nnn(-c2cc(F)cc(F)c2)c1-c1ccncc1", "Mtb cholesterol medium": -6.01, "Mtb glucose medium": -17.39}
{"smiles": "COc1ccc(C)cc1CN1CCCC1c1noc(C2CC2)n1", "stereo": "stereo unspecified", "Mtb cholesterol medium": 23.84, "Mtb glucose medium": 52.46}
{"smiles": "Cc1cnc(NC(=O)C(C)n2ccc(C(F)(F)F)n2)s1", "stereo": "stereo unspecified", "Mtb cholesterol medium": 12.74, "Mtb glucose medium": 27.47}
{"smiles": "c1ccc(Oc2ccc(OC34CCCN(CC3)C4)cc2)cc1", "stereo": "stereo unspecified", "Mtb cholesterol medium": 58.08, "Mtb glucose medium": "75.14 & 70.84"}
{"smiles": "Cn1nccc1CNC(=O)NC1CCN(c2ncccc2Cl)C1", "stereo": "stereo unspecified", "Mtb cholesterol medium": -27.98, "Mtb glucose medium": 7.782}
{"smiles": "Cc1noc(C)c1CCCNC(=O)C1CCN(C(=O)C2CCC2)CC1", "Mtb cholesterol medium": -3.603, "Mtb glucose medium": -16.47}
{"smiles": "CN1CC(Oc2ccc(Cl)cc2)=NC(SCC(=O)c2ccccc2)=N1", "Mtb cholesterol medium": -43.19, "Mtb glucose medium": -51.84}
{"smiles": "CCOc1ccc2[nH]c(=O)c(CN3CCC(n4cnnc4)CC3)cc2c1", "Mtb cholesterol medium": 1.572, "Mtb glucose medium": -1.483}
{"smiles": "[H][C@@]12CNCC[C@]1(O)CCN(CCOc1ccc(C)cc1OC)C2", "Mtb cholesterol medium": -1.818, "Mtb glucose medium": "5.25 & 0.9132"}
{"smiles": "COc1cc(C(C)=O)ccc1SCC(=O)Nc1ccccn1", "Mtb cholesterol medium": -23.09, "Mtb glucose medium": -15.74}
{"smiles": "Cc1ccc(NC2CCN(C(=O)c3ccc(C(N)=O)s3)CC2)nn1", "Mtb cholesterol medium": 9.865, "Mtb glucose medium": -0.4997}
{"smiles": "COc1ccccc1OCCCc1cc(C)nc(N)n1", "Mtb cholesterol medium": 0.7698, "Mtb glucose medium": 23.26}
{"smiles": "CCc1nc(C2CCCN(C(=O)c3ccc4[nH]cnc4c3)C2)no1", "stereo": "stereo unspecified", "Mtb cholesterol medium": -14.91, "Mtb glucose medium": -7.005}
{"smiles": "Cc1ccc(C(=O)N2CCSCC2)cc1NC(=O)Cn1cncn1", "Mtb cholesterol medium": -15.66, "Mtb glucose medium": -2.322}
{"smiles": "O=C(CN1CCCC1)N1CCCC(c2cc(=O)n3c(n2)CCCCC3)C1", "stereo": "stereo unspecified", "Mtb cholesterol medium": 0.7634, "Mtb glucose medium": -16.99}
{"smiles": "Cc1ncc(CN2CCC(CNS(=O)(=O)C3CC3)C2)cn1", "stereo": "stereo unspecified", "Mtb cholesterol medium": -0.6565, "Mtb glucose medium": -11.42}
{"smiles": "Cc1cc(C)c(S(N)(=O)=O)cc1C(=O)NCCN1CCCCC1", "Mtb cholesterol medium": -18.54, "Mtb glucose medium": "-16.99 & -2.819"}
{"smiles": "Cc1noc(NC(=O)c2ccc(C#N)cc2)n1", "Mtb cholesterol medium": -9.7, "Mtb glucose medium": 7.107}
{"smiles": "O=C(Cc1cccc(O)c1)NCCNc1nccc(C(F)(F)F)n1", "Mtb cholesterol medium": "-4.413 & -0.7877", "Mtb glucose medium": -8.07}
{"smiles": "CC(C)c1ncncc1C(=O)NCCN1CCCCCC1", "Mtb cholesterol medium": 7.639, "Mtb glucose medium": 5.215}
{"smiles": "Cc1noc(C)c1CN(C)C(=O)CN1CC(c2ccccc2)CC1=O", "stereo": "stereo unspecified", "Mtb cholesterol medium": -0.7863, "Mtb glucose medium": 29.75}
{"smiles": "COCc1cn(CC2CCN(Cc3c(C)[nH]c4ccccc34)CC2)nn1", "Mtb cholesterol medium": -1.355, "Mtb glucose medium": "0.6915 & -2.515"}
{"smiles": "CCCn1cc(-c2cc(-c3cnc(OC)nc3)c(C#N)c(N)n2)c(C)n1", "Mtb cholesterol medium": 30.44, "Mtb glucose medium": 31.98}

Repeated from the top, 3 entries:

| SMILES | Mtb cholesterol medium | Mtb glucose medium |
|---|---|---|
| `CC(C)c1noc(CCNC(=O)N2CCSC(C(C)C)C2)n1` (stereo unspecified) | 0.1142 | 10.6 |
| `CCc1noc(CN(C)CCC(=O)Nc2ccccc2C#N)n1` | 2.39 | -3.31 & 3.34 |
| `CCN(CC)Cc1ccc(C(=O)N2CCCCC2Cn2cccn2)o1` (stereo unspecified) | -4.184 | 14.88 |

From ChEMBL document CHEMBL3988442, “University of Dundee, Small-Polar-MMV Screening Library” (2021).